This assay addresses FLAG-tagged TRIM6 (tripartite motif-containing protein 6) (UniProt Q9C030). Nature of the assay: affinity purification with mass spectrometry; FLAG-TRIM6 or vector in 293T cells, RIPA lysate pre-cleared with IgG and protein A/G beads, anti-FLAG beads overnight at 4 °C, eluted with FLAG peptide, SDS-PAGE, differential bands excised and analysed by LC/MS.

The chains behind the UniProt entries cited, without tags or fusion partners.
UniProt Q9C030: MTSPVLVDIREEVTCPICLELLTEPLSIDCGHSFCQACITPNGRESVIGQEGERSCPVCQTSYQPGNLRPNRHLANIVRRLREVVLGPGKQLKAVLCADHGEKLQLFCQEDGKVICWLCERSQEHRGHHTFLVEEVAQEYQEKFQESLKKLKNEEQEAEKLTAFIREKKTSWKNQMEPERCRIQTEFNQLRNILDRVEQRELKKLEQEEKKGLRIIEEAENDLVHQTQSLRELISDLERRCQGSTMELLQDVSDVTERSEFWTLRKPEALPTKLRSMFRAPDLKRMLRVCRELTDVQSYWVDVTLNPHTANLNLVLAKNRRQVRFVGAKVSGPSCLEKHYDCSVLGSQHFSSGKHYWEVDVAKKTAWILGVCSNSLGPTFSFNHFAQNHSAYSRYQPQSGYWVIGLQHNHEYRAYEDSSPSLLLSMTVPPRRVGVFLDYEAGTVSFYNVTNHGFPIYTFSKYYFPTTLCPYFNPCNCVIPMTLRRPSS
UniProt P78543: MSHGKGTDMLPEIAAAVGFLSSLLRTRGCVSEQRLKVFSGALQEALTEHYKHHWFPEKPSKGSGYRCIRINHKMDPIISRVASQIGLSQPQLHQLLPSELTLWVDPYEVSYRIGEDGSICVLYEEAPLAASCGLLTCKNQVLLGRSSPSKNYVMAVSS

Results are given in words; binding and its absence hold for the method and conditions named. In cells and extracts the contact can be indirect. Here binding means that the protein was enriched with, or labelled near, the bait; the list need not be complete.

Consider “TIS21 (endogenous, 293T cells) (from UniProt P78543 1-158)”, for which the binding result is listed as “binds”.

These data come from PMC6988281.
